Source: PubChem BioAssay AID2060903 (Molecular Pharmacology Branch, DTP, NCI, 2025)
This continues a long series; more values of the same kind are listed elsewhere.

Test system: 377384-186-R-J1-PDC complex spheroid viability
Experiment: Anticancer human tumor 377384-186-R-J1-PDC patient-derived pancreatic carcinoma cell line growth inhibition [RAS]
Conditions: hits give low values; active means viability on the fitted dose curve at most 10% of control; inactive means the rest
From the text: RAS pathway inhibitors in Combinations in Complex Spheroids
A high-throughput screen of multi-cell type tumor spheroids was designed to identify active combinations of RAS pathway inhibitors and targeted small molecules. Complex spheroids include a stromal component modeled by human endothelial cells (HUVEC) and fibroblasts modeled by human mesenchymal stem cells (MSCs). The concentration ranges selected for each drug and investigational agent were based upon clinically achievable concentrations if the clinical Cmax of the agent was known.
Compounds. The drugs and investigational agents: abemaciclib (NSC768073), cobimetinib (NSC768068), divarasib (GDC6063, NSC841802), docetaxel (NSC628503), GDC-1971 (RLY-1971, NSC841576), gemcitabine (NSC613327), inavolisib (NSC800729), ipatasertib (NSC767898), KB-0742 (NSC834161), MRTX-1133 (NSC836407), osimertinib (NSC779217), RMC-4630 (NSC839698), RMC-6236 (NSC851965), RMC-6291 (NSC852671), Ro-3306 (NSC812927), sapanisertib (NSC764658), SN-38 (NSC673596), staurosporine (NSC755774), SY5609 (NSC837396), and tovorafenib (DAY101, NSC766906), were obtained from the National Cancer Institute (NCI) Developmental Therapeutics Program Chemical Repository. The FDA-approved anticancer drug set is available from the NCI Developmental Therapeutics Program. […] The stock solutions were prepared in dimethyl sulfoxide (DMSO, Sigma-Aldrich, St. Louis, MO, cat. D2650) at 800-fold the tested concentration and stored at -70 degrees C prior to their use. All drugs and investigational agents were tested over a range starting from a high concentration at or near the clinical Cmax and decreasing in half-log increments. If the clinical Cmax for an agent had not been determined, the highest concentration tested was 10 microM.
Cell Culture. All cells were maintained in an incubator at 37 degrees C and 5% CO2 with 95% humidity. The PDC lines were cultured according to standard operating procedures established by the NCI PDMR. All PDCs were thawed and cultured in Matrigel-coated flasks prepared with a working solution of 1X Ham's F-12 nutrient mix, without supplementation (Invitrogen, Waltham, MA, cat. 11765054), 100 U/mL penicillin-streptomycin (Invitrogen, cat. 15140122), and 2.5% Matrigel (Corning Inc., Corning, NY, cat. 354248) for the first three passages. The 362531-283-R-J2-PDC and 782815-120-R-J1-PDC lines were cultured in 6C/Colon 1B media, which includes advanced DMEM/F-12 (Thermo Fisher Scientific, cat. 12634028), 10 mM HEPES (Thermo Fisher Scientific, cat. 15630080), 1X GlutaMAX supplement (Thermo Fisher Scientific, cat. 35050061), 0.1 mg/mL primocin (InvivoGen, San Diego, CA, cat. ant-pm-2), 10% defined fetal bovine serum, heat inactivated (HyClone Laboratories Inc., Logan, UT, cat. SH30070.03HI), 50% L-WRN conditioned media (ATCC, cat. CRL-3276), 1.25 mM N-Acetyl-L-cysteine (Sigma-Aldrich, cat. A9165), 10 mM nicotinamide (Sigma-Aldrich, cat. N0636), 1X B-27 supplement (Thermo Fisher Scientific, cat. 17504044), 1X N-2 supplement (Thermo Fisher Scientific, cat. 17502048), 50 ng/mL human EGF (Thermo Fisher Scientific, cat. PHG0311), and 10 microM Y-27632 dihydrochloride (Tocris Bioscience, cat. 1254). The K12877-001-R-J1-PDC line was cultured in 6I media, which includes all 6C/Colon 1B media plus 10 ng/mL human FGF-10 (PeproTech, cat. 100-26), 1 ng/mL human FGF-2 (PeproTech, cat. 100-18B), 1 µM prostaglandin E2 (Tocris Bioscience, cat. 2296), […] hydrocortisone (Sigma-Aldrich, cat. H4001), and […] bovine insulin (Sigma-Aldrich, cat. I6634). The K86415-001-R-J1-PDC line was cultured in 6D media, which includes all 6C/Colon 1B media components minus the L-WRN conditioned media. The 485176-168-R4-J1-PDC was cultured in PANC media, which includes all 6C/Colon 1B media plus 100 ng/mL human FGF-10 (PeproTech, cat. 100-26), 500 nM SB-431542 (Selleckchem, cat. S1067), and 10 nM gastrin (Tocris Bioscience, cat. 3006). […]

Measured: viability, T/C
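Further: spheroids exposed to compounds for seven days before readout.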

C=CC(=O)N1CCN(c2nc(OCC3CCCN3C)nc3c(F)c(-c4nc(N)cc(C)c4C(F)(F)F)c(Cl)cc23)C(C)C1 (stereo not drawn)
inactive: compound 0.00316 µM, compound 0.01 µM 92.5% | compound 0.00316 µM, compound 0.0316 µM 96.9% | compound 0.00316 µM, compound 0.1 µM 97.3% | compound 0.00316 µM, compound 0.316 µM 83.2% | compound 0.00316 µM, compound 1 µM 85.4% | compound 0.00316 µM 88% | compound 0.01 µM, compound 0.00316 µM 99.9% | compound 0.01 µM 97%
